# The supplement of paper PMC4635364
# Counter-ions that a name gives are not always drawn. The list shows a part of the results. Repeats in this data set agree poorly, so a single value says little.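 Cells: ReNCell VM human fetal ventral-midbrain neural progenitors, differentiated mitogen-free. Blinded raters compared doublecortin-stained (early neurons) or tyrosine hydroxylase-stained (dopaminergic neurons) images with untreated wells, where 0 means no change. After repeats and both raters were averaged, compounds scoring 2 or above became hits for retesting.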
# Experiments:
# [1] = system: ReNCell VM; test: neuronal differentiation score (DCX+ cell fraction vs untreated, manual image score) (score (-3 to 3)); higher = more neuronal differentiation; conditions: 2 uM, 2 weeks
# [2] = system: ReNCell VM; test: dopaminergic neuron differentiation score (TH+ cell fraction vs untreated, manual image score) (score (0 to 3)); higher = more TH+ dopaminergic neuron differentiation; conditions: 2 uM, 4 weeks, BDNF 10 ng/ml + GDNF 10 ng/ml
smiles,measurement,setting,value
O=c1[nH]c2ccccc2n1CCCN1CCC(n2c(=O)[nH]c3cc(Cl)ccc32)CC1,neuronal differentiation score,[1]; library: Spectrum,inactive: 0
same,dopaminergic neuron differentiation score,[2]; library: Spectrum,inactive: 0
C[C@@H]1O[C@@H](O[C@H]2C[C@@H](O)[C@]3(CO)[C@H]4[C@H](O)C[C@]5(C)[C@@H]([C@@H]6COC(=O)C6)CC[C@]5(O)[C@@H]4CC[C@]3(O)C2)[C@H](O)[C@H](O)[C@H]1O [Dihydroouabain],neuronal differentiation score,[1]; library: LOPAC,inactive: 0
same,dopaminergic neuron differentiation score,[2]; library: LOPAC,inactive: 0
Cc1nnc2n1-c1sc(CCC(=O)N3CCOCC3)cc1C(c1ccccc1Cl)=NC2,neuronal differentiation score,[1]; library: Tocriscreen,inactive: 0
same,dopaminergic neuron differentiation score,[2]; library: Tocriscreen,inactive: 0
CC(C)=CCOc1c2occc2cc2ccc(=O)oc12 [imperatorin],neuronal differentiation score,[1]; library: Natural,inactive: 0
same,dopaminergic neuron differentiation score,[2]; library: Natural,inactive: 0
CC1=C(O)C(=O)C=C2C1=CC=C1[C@@]2(C)CC[C@@]2(C)[C@@H]3C[C@](C)(C(=O)O)CC[C@]3(C)CC[C@]12C,neuronal differentiation score,[1]; library: Spectrum,inactive: 0
same,dopaminergic neuron differentiation score,[2]; library: Spectrum,inactive: 0
Cc1ncc(CNC(=O)N(CCCl)N=O)c(N)n1,neuronal differentiation score,[1]; library: Spectrum,inactive: 0
same,dopaminergic neuron differentiation score,[2]; library: Spectrum,inactive: 0
CCC(N)C(O)c1ccc(O)c(O)c1 (configuration not stated),neuronal differentiation score,[1]; library: Spectrum,inactive: 0
same,dopaminergic neuron differentiation score,[2]; library: Spectrum,inactive: 0
CCN(C(C)=O)c1cccc(-c2ccnc3c(C#N)cnn23)c1 [Zaleplon],neuronal differentiation score,[1]; library: Prestwick,inactive: 0
same,dopaminergic neuron differentiation score,[2]; library: Prestwick,inactive: 0
CCCN1CCC[C@@H](c2cccc(O)c2)C1 [S(-)-3PPP hydrochloride],neuronal differentiation score,[1]; library: LOPAC,inactive: 0
same,dopaminergic neuron differentiation score,[2]; library: LOPAC,inactive: 0
CN1CCc2cc3c(cc2C1O)OCO3 (configuration not stated),neuronal differentiation score,[1]; library: Spectrum,inactive: 0
same,dopaminergic neuron differentiation score,[2]; library: Spectrum,inactive: 0
C[C@H]1O[C@H](O[C@H]2[C@H](O)[C@@H](O)[C@@H](O)[C@H](O)[C@@H]2O)[C@@H](N)C[C@@H]1NC(=N)C(=O)O,neuronal differentiation score,[1]; library: Spectrum,inactive: 0
same,dopaminergic neuron differentiation score,[2]; library: Spectrum,inactive: 0

# Exported with tabs: entries from further up
smiles	measurement	setting	value
Cc1ncc(CNC(=O)N(CCCl)N=O)c(N)n1	dopaminergic neuron differentiation score	[2]; library: Spectrum	inactive: 0
CCC(N)C(O)c1ccc(O)c(O)c1 (configuration not stated)	neuronal differentiation score	[1]; library: Spectrum	inactive: 0
